The list does not hold the whole screen: it is rich in T/C values a quarter to a half above the control, in often repeated tests (any T/C) and in doses without a T/C. Other doses and runs of a compound stand elsewhere. T/C is the treated group as % of the vehicle group. Some doses have a count of surviving animals in place of a T/C: the source files T/C as zero there, which appears to mark a toxic dose or a test without result, not a measured value. Some survivor counts are full or nearly so, which does not show that the dose was tolerated: survival well below the control is almost never listed, so the zero probably covers shortened survival too. Counts of survivors are from the toxicity check (mostly the fifth day) where no day follows; animals may have died later. Schedule codes are those of the source, read here as Q, the interval in days (D) or hours (H), X, the number of doses. Some doses were run more than once; their values stand side by side, smallest first. Some schedules carry Z or #; the key to these is not given. Where survival is the endpoint, this PubChem deposit counts one and a half times the control or more as active, and values a quarter to a half above the control carry no call in these data; other NCI protocols may use other cut-offs. Some T/C values carry the count of animals alive at the toxicity check (mostly the fifth day); where none is given, no animal had died by that day. Counts like (3×) count equal records among those shown.
Test system: CD2F1 mice, L1210 leukemia sc, survival T/C
Assay: NCI In Vivo Anticancer Drug Screen. Data for tumor model L1210 Leukemia (subcutaneous) in CD2F1 (CDF1) mice
Conditions: T/C endpoint: median survival time, higher T/C = longer survival
How it was run: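 Transplantable tumor-bearing mice were treated with compound; survival or tumor size measured and expressed as treated-group value (T) divided by vehicle-treated control value (C).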

[1] = dose: 23.0 mg/kg/injection, schedule: Q01DX Z (sc), vehicle: other
[2] = dose: 65.0 mg/kg/injection, schedule: Q01DX Z (sc), vehicle: other
[3] = dose: 8.4 mg/kg/injection, schedule: Q01DX Z (sc), vehicle: methylcellulose (MC)
[4] = dose: 14.0 mg/kg/injection, schedule: Q01DX Z (sc), vehicle: methylcellulose (MC)
[5] = dose: 39.0 mg/kg/injection, schedule: Q01DX Z (sc), vehicle: methylcellulose (MC)
[6] = dose: 65.0 mg/kg/injection, schedule: Q01DX Z (sc), vehicle: methylcellulose (MC)
[7] = dose: 39.0 mg/kg/injection, schedule: Q01DX Z (sc), vehicle: other

NCCCNCCCCNC(=O)C(O)NC(=O)CCCCCCN=C(N)N (stereo not drawn)
T/C (dose: 0.78 mg/kg/injection, schedule: Q01DX009 (ip), vehicle: saline): 143 % of control | T/C (dose: 4.0 mg/kg/injection, schedule: Q03HX008 (ip), vehicle: saline): 130 % of control | T/C (dose: 8.0 mg/kg/injection, schedule: Q03HX008 (ip), vehicle: saline): 129 and 138 % of control | T/C (dose: 16.0 mg/kg/injection, schedule: Q03HX008 (ip), vehicle: saline): 135 and 138 % of control | survivor count (dose: 32.0 mg/kg/injection, schedule: Q03HX008 (ip), vehicle: saline): 6 of 10 and 6 of 10 on day 7 | survivor count (dose: 50.0 mg/kg/injection, schedule: Q01DX009 (ip), vehicle: saline): 3 of 6 | survivor count (dose: 64.0 mg/kg/injection, schedule: Q01DX001 (ip), vehicle: saline): 0 of 10 and 1 of 10 on day 7 | survivor count (dose: 64.0 mg/kg/injection, schedule: Q03HX008 (ip), vehicle: saline): 0 of 10 and 0 of 10 on day 7

O=C/C(Br)=C(/Br)C(=O)O
survivor count [1]: 6 of 10 | survivor count [2]: 2 of 10

Nc1c(/C=C/c2cc3cc(C4=NCCN4)ccc3o2)[nH]c2cc(C3=NCCN3)ccc12
survivor count (dose: 50.0 mg/kg/injection, schedule: Q01DX009 (ip), vehicle: Klucel (hydroxypropylcellulose) (HPC)): 4 of 10

CNCCN=c1ccc2c3c1c(O)c1c(O)ccc(=O)c1c3[nH]n2CCNCCO
T/C (dose: 1.8 mg/kg/injection, schedule: Q01DX009 (ip), vehicle: water): 140 % of control

O=NNc1cnccn1
T/C (dose: 24.0 mg/kg/injection, schedule: Q01DX009 (ip), vehicle: water): 137 % of control | survivor count (dose: 111.1 mg/kg/injection, schedule: Q01DX009 (ip), vehicle: water): 9 of 9 | survivor count (dose: 185.17 mg/kg/injection, schedule: Q01DX009 (ip), vehicle: water): 1 of 10

COc1cc2c(c(OC)c1OC)-c1ccc(O)cc1[C@@H](NC(C)=O)CC2
survivor count [3]: 4 of 10 | survivor count [4]: 1 of 10 | survivor count (dose: 23.0 mg/kg/injection, schedule: Q01DX Z (sc), vehicle: methylcellulose (MC)): 3 of 10 | survivor count [5]: 5 of 10 | survivor count [6]: 4 of 10

Nc1nc(N)c2cc(CCc3ccc(C(=O)NC(CCC(=O)O)C(=O)O)cc3)ccc2n1 (stereo not drawn)
T/C (dose: 0.31 mg/kg/injection, schedule: Q01DX009 (ip), vehicle: Klucel (hydroxypropylcellulose) (HPC)): 125 % of control | survivor count (dose: 1.25 mg/kg/injection, schedule: Q01DX009 (ip), vehicle: Klucel (hydroxypropylcellulose) (HPC)): 5 of 6

S=c1nc[nH]c2nc[nH]c12
survivor count (dose: 5.0 mg/kg/injection, schedule: Q01DX Z (sc), vehicle: methylcellulose (MC)): 3 of 10 | survivor count [3]: 5 of 10 | T/C (dose: 8.4 mg/kg/injection, schedule: Q## X Z (sc), vehicle: other): 138 % of control | T/C (dose: 10.0 mg/kg/injection, schedule: Q01DX009 (sc), vehicle: saline with Tween-80): 142 % of control | survivor count [4]: 2 of 10 | T/C [1]: 100, 105, 105 % of control [7 of 8 alive] | survivor count [1]: 4 of 10 | T/C [5]: 136 % of control | survivor count [5]: 5 of 10 | T/C [7]: 100 (2×) and 105 % of control | survivor count [7]: 4 of 10 | T/C (dose: 39.0 mg/kg/injection, schedule: Q## X Z (sc), vehicle: other): 144 % of control | T/C (dose: 65.0 mg/kg/injection, schedule: Q01DX Z (ip), vehicle: other): 145 % of control | T/C (dose: 65.0 mg/kg/injection, schedule: Q01DX Z (oral), vehicle: other): 125 % of control | T/C [6]: 131 % of control | T/C [2]: 120 [7 of 10 alive], 130, 154, 166 % of control | T/C (dose: 108.0 mg/kg/injection, schedule: Q01DX Z (sc), vehicle: other): 163, 170 [8 of 10 alive], 177, 180 % of control | T/C (dose: 108.0 mg/kg/injection, schedule: Q#A X Z (sc), vehicle: other): 144 % of control | T/C (dose: 180.0 mg/kg/injection, schedule: Q01DX Z (ip), vehicle: other): 130 % of control | T/C (dose: 180.0 mg/kg/injection, schedule: Q01DX Z (oral), vehicle: other): 145 % of control | T/C (dose: 180.0 mg/kg/injection, schedule: Q01DX Z (sc), vehicle: methylcellulose (MC)): 140 % of control | T/C (dose: 180.0 mg/kg/injection, schedule: Q01DX Z (sc), vehicle: other): 122, 130, 145 [9 of 10 alive], 180 % of control [9 of 10 alive] | T/C (dose: 200.0 mg/kg/injection, schedule: Q01DX Z (sc), vehicle: other): 137 % of control [7 of 8 alive] | T/C (dose: 300.0 mg/kg/injection, schedule: Q01DX Z (sc), vehicle: methylcellulose (MC)): 130 % of control | survivor count (dose: 300.0 mg/kg/injection, schedule: Q01DX Z (sc), vehicle: other): 4 of 10 | survivor count (dose: 300.0 mg/kg/injection, schedule: Q07DX Z (sc), vehicle: other): 4 of 8

Source: PubChem BioAssay AID258 (DTP/NCI, 2004)
